Data reported in paper PMC10394084.
These are yes or no findings as the source states them, for the method shown. Binding seen in cells or lysates may run through a third protein. Some binding calls cover weakened binding; strength is not graded here. Each block holds one molecule with its values, some of them ahead of it.

Chains of the proteins cited; added tags and fusions are not shown.
UniProt Q5SXA9: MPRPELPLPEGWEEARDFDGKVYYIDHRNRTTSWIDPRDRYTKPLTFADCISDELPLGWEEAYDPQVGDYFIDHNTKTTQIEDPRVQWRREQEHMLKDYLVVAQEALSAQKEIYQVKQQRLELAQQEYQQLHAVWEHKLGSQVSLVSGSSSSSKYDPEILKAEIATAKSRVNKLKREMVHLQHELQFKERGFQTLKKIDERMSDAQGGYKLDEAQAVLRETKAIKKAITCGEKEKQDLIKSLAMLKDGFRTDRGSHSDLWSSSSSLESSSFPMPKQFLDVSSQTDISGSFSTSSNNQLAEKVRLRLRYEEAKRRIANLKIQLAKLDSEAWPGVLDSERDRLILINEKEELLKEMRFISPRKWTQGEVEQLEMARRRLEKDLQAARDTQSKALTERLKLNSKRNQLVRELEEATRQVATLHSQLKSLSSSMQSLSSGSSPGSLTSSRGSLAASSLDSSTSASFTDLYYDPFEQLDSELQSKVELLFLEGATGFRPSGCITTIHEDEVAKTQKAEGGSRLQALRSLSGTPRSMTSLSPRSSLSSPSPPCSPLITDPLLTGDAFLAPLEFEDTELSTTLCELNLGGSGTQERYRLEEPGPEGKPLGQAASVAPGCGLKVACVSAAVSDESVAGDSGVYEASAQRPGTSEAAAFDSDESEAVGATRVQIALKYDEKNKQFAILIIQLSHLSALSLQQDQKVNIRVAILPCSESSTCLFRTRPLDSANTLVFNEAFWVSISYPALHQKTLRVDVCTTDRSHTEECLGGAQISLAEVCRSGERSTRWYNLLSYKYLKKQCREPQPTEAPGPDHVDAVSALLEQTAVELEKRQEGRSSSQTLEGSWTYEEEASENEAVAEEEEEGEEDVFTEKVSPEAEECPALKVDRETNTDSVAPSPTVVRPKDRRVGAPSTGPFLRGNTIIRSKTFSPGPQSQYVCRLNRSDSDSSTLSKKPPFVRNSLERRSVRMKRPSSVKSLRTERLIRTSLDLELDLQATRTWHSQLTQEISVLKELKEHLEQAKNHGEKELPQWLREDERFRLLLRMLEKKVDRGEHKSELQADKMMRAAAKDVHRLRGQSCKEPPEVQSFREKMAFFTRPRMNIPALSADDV

Tests used:
[1] = target: WWC1 (co-immunoprecipitation with USP9X, Fig. S3A) (UniProt Q8IX03); test: co-IP; co-immunoprecipitation of USP9X and WWC1 (Fig. S3A); set-up not shown
[2] = target: endogenous WWC1 of mouse cortex (mouse (endogenous in cortex)) (UniProt Q5SXA9); test: co-IP; mouse cortex homogenates (wild-type, P21) in RIPA buffer; primary antibody 1 h at 4 °C, protein A/G agarose 2 h; IgG as control; immunoblotting

- binding [1]: binds
Molecule: USP9X (from UniProt Q93008 1-2554) (enzyme)

- binding [2]: binds
B1: endogenous AMOT (AMOTp130) of mouse cortex (protein, UniProt Q8VHG2 1-1126)
chain: MRSSDDQPSGGTTVLQRLLQEQLRYGNPSENRSLLAIHQQATGNSSPFSTGSGNQGPQNDVLSSQDHHQQQLVAHPARQEPQGQEIQSENGVMEKQLSPRMQNNEELPTYEEAKVQSQYFRGQQHASVGAAFYVTGVTNQKMRTEGRPSVQRLTPGKMHQDEGLRDLKQGHVRSLSERLMQMSLATSGVKAHPPVTSAPLSPPQPNDLYKNATSSSEFYKAQGPPPSQHSLKGMEHRGPPPEYPFKGVPSQSVVCKSQEPGHFYSEHRLNQPGRTEGQLMRYQHPPEYGAARATQDISSLSLSARNSQPHSPTSSLTAGASSLPLLQSPPSTRLPPGQHLVSNQGDHSAHLSRHQQHLLSSQSHQGDHYRHAQASLTSAQQQPGEAYSAMPRAQQSASYQPMPADPFAMVSRAQQMVEILSDENRNLRQELDGCYEKVARLQKVETEIQRVSEAYENLVKSSSKREALEKAMRNKLEGEIRRMHDFNRDLRDRLETANKQLAEKEYEGSEDTRKTISQLFAKHKENQREKEKLEAELATARSTNEDQRRHIEIRDQALSNAQAKVVKLEEELKKKQVYVDKVEKMQQALVQLQAACEKREQLEHRLRTRLERELESLRIQQRQGNSQPTNASEYNAAALMELLREKEERILALEADMTKWEQKYLEENVMRHFALDAAATVAAQRDTTVISHSPNTSYDTALEARIQKEEEEILMANKRCLDMEGRIKTLHAQIIEKDAMIKVLQQRSRKEPSKTEQLSSMRPAKSLMSISNAGSGLLAHSSTLTGAPIMEEKRDDKSWKGSLGVLLGGDYRVEPVPSTPSPVPPSTPLLSAHSKTGSRDCSTQTERGPESTKTAAVTPISAPMAGPVAAAAPAAAINATAATNTATAATNTTIMVAAAPVAVAAVAAPAAAAATPSPANAAALAAAAAPATSVSAATSVSAANSISPAAPVAPAAVVPPAAPVSPAAAVQIPAAASLTPATVSPTAATATAAVAAATTAAITAAAAAATTAIQVAPATSAPVPSPASIPAPATAQASAPTPTQASTPAPTEPPSPVPTPTPALVQTEGPANPGASSGPRRLSTPNLMCNPDKPDAPAFHSSTLERKTPIQILGQEPDAEMVEYLI
